The record followed here is PMC11316798, “Signaling by a bacterial phytochrome histidine kinase involves a conformational cascade reorganizing the dimeric photoreceptor” (Nature Communications, 2024).

The assay addresses T1, Pseudomonas syringae bacteriophytochrome photoreceptor BphP1 (PsBphP1), full length, assembled with biliverdin (Pseudomonas syringae) (UniProt Q885D3).
T1 sequence (chain, biliverdin (BV) covalently linked via a thioether linkage to Cys16): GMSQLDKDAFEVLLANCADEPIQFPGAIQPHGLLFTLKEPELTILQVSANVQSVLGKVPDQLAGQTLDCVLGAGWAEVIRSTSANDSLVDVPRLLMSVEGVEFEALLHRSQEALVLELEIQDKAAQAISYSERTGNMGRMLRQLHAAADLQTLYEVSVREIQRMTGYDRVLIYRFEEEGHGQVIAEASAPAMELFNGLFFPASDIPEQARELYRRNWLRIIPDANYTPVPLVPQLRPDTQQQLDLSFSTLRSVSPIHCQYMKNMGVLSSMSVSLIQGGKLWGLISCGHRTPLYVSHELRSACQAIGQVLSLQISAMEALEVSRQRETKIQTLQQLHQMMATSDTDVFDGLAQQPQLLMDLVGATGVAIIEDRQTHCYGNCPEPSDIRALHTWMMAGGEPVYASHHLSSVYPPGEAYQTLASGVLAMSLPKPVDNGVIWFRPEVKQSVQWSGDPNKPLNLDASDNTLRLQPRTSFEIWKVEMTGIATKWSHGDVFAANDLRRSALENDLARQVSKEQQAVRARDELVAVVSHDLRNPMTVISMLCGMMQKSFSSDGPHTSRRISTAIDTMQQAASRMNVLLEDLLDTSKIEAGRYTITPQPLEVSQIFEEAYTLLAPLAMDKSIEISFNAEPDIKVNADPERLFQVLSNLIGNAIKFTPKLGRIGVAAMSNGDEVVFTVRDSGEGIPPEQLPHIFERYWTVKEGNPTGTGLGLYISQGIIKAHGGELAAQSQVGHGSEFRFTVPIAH
Kind of assay: SEC; PsBphP1 (3 mg mL^-1) as Pr or Pfr mixed with the response regulator (3 mg mL^-1), incubated 10 min, without ATP; Superdex 200 Increase, 22 °C, 175 mM KSCN buffer pH 7.5 with 5 mM MgCl2 and 0.2 mM Na2EDTA; both purified. (Size exclusion chromatography separates by hydrodynamic size, large species first.)

These are yes or no findings as the source states them, for the method shown.

Take “Deinococcus radiodurans BphR response regulator/phosphatase (DrBphR)”: the binding entry is reported as “no binding (tested: 3 mg mL^-1 each)”.
